# “And” between values parts separate entries of the source, which are not always exact repeats. Identical values can stand only once. The inconclusive results got no clear call from the source; some entries with a clear call stand among them for comparison. Potencies beside an inconclusive call are fits to weak or partial responses and may not hold up. More than one record can exist for a structure, and the calls need not agree. The source made the active and inactive calls. Calls come from the whole dose curve; as a rule, active = well fitted curve in the direction sought with a large enough effect in the repeat runs; inconclusive = weak or mixed curves; inactive = no such curve, though single readings can be large; an effect the other way counts as inactive or inconclusive.
# Amino acid sequences for entries named in this document (tags omitted). A change or cut given only in a name is not applied to a line headed by its entry.
# UniProt P10635, whole entry, looked up: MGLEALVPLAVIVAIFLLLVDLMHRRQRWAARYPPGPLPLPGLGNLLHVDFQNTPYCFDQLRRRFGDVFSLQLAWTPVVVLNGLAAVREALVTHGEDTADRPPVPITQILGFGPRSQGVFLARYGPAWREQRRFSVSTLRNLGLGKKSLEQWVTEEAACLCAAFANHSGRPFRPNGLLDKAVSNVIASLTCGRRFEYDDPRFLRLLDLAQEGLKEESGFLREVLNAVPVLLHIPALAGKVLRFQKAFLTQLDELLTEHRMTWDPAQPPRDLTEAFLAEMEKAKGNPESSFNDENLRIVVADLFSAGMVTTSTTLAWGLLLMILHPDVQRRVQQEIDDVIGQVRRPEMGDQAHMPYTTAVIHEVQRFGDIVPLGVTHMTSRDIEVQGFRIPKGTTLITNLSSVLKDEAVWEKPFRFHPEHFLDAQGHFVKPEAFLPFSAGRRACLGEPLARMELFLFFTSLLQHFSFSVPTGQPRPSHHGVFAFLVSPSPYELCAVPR
# UniProt P05177, whole entry, looked up: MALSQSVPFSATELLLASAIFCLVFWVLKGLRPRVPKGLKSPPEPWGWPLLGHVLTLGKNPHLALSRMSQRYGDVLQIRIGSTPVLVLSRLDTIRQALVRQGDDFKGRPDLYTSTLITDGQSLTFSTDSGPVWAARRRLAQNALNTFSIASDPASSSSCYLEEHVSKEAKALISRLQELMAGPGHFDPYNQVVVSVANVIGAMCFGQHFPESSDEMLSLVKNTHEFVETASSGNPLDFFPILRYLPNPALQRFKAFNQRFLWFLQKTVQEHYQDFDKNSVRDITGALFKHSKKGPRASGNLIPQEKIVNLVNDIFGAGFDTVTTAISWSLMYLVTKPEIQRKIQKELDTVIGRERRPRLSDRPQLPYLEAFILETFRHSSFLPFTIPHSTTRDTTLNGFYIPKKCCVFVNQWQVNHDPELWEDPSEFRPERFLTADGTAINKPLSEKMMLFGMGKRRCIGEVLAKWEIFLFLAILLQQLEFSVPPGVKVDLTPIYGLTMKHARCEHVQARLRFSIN
# UniProt P11712, whole entry, looked up: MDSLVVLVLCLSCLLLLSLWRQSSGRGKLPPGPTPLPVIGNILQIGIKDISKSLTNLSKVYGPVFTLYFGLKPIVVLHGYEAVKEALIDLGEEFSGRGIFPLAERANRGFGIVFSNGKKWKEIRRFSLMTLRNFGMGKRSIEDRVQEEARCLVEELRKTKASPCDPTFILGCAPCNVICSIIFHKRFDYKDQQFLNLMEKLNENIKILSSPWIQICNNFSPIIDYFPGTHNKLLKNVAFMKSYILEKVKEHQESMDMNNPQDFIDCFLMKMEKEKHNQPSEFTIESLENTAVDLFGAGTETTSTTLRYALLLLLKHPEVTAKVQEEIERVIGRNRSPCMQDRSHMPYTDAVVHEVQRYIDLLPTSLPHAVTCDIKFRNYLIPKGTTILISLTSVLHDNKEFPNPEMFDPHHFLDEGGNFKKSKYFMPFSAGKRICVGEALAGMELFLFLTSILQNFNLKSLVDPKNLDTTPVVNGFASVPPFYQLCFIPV
# UniProt Q12809: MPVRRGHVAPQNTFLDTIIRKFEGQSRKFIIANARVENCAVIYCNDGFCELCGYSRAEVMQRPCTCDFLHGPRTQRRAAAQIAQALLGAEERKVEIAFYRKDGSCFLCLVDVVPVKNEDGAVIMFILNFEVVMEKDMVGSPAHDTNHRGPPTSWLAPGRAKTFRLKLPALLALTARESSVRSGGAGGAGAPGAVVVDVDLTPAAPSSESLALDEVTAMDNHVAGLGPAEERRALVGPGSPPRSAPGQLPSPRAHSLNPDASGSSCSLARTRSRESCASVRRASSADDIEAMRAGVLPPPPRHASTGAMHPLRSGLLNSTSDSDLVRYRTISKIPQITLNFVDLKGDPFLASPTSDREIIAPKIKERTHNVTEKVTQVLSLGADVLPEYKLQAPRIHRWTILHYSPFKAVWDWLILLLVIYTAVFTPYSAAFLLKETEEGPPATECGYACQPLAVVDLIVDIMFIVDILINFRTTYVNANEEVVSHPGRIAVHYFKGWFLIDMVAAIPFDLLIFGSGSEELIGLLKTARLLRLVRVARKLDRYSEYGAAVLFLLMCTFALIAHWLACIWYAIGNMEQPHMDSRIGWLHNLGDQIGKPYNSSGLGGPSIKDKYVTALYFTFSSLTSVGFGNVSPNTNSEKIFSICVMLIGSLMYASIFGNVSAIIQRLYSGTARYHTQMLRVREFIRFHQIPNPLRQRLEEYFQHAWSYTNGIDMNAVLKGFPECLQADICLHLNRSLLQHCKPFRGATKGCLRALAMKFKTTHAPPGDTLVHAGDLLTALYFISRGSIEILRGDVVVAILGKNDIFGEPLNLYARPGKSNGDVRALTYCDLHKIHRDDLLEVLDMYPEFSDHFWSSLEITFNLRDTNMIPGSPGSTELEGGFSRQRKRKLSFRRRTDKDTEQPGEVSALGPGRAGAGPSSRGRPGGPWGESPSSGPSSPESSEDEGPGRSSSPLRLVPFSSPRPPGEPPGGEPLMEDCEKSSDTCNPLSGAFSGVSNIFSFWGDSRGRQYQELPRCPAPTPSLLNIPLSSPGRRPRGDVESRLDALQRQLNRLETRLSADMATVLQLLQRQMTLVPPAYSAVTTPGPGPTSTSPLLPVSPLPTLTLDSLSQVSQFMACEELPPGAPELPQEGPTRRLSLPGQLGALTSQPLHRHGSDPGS
# UniProt P33261, whole entry, looked up: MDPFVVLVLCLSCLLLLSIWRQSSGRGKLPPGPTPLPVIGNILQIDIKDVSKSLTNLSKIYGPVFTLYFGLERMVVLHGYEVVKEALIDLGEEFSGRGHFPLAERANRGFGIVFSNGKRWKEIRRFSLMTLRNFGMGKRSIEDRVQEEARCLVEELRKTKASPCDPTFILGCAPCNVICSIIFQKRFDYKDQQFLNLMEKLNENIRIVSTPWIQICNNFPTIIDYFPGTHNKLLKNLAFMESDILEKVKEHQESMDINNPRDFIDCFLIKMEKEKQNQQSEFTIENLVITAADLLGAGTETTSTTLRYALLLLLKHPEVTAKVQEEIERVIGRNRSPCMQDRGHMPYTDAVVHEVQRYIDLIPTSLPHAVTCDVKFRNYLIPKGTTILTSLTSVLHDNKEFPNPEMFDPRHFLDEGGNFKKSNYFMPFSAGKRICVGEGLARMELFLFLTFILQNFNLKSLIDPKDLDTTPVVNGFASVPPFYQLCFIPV
# UniProt P08684, whole entry, looked up: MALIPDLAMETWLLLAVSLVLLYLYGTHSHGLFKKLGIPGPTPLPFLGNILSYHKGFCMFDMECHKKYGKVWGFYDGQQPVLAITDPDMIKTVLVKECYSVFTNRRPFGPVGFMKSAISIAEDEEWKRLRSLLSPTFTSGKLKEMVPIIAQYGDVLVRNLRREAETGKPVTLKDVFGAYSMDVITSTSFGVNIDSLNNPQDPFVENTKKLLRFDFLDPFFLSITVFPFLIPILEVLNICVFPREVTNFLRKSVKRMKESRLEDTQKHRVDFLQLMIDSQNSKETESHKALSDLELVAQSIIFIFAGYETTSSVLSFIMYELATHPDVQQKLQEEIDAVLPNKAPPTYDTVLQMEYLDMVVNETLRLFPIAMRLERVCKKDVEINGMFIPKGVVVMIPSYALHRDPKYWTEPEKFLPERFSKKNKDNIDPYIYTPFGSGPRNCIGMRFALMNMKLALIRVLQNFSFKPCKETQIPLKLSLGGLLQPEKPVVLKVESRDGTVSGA
# Tests used:
# [1] = molecular target: Cytochrome P450 2D6 (Homo sapiens) (UniProt P10635); experiment: Cytochrome P450 Family 2 Subfamily D Member 6 (CYP2D6) small molecule antagonists: luciferase reporter qHTS assay (AID 1671196); note: nearly all actives have a fitted effect of over 50% in size
# Outline: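 Inhibition of CYP2D6 was gauged by loss of luminescence, since light produced tracks the luciferin generated from a proluciferin substrate. A 10 min room-temperature preincubation preceded 1 h NADPH-supported turnover.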
# [2] = molecular target: Nuclear receptor subfamily 1 group I member 2 (Homo sapiens) (UniProt O75469); experiment: Human pregnane X receptor (PXR) small molecule agonists, qHTS assay (AID 1346982); note: nearly all actives have a fitted effect of over 35% in size
# Outline: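 Luminescence (ONE-Glo, 30 min RT) after 24 hr compound exposure of PXR-Luc HepG2 cells; cells rested 5 hr post-plating in 5% charcoal-stripped FBS medium.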
# [3] = molecular target: Cytochrome P450 1A2 (Homo sapiens) (UniProt P05177); experiment: Cytochrome P450 Family 1 Subfamily A Member 2 (CYP1A2) small molecule antagonists: luciferase reporter qHTS assay (AID 1671199); note: nearly all actives have a fitted effect of over 50% in size
# Outline: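 Signal from luciferin formed by CYP1A2 from a proluciferin substrate is read as luminescence, expressed in relative luminescence units. Compounds sit with enzyme 10 min, NADPH-driven reaction runs 1 h, all at room temperature.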
# [4] = molecular target: Cytochrome P450 2C9 (Homo sapiens) (UniProt P11712); experiment: Cytochrome P450 Family 2 Subfamily C Member 9 (CYP2C9) small molecule antagonists: luciferase reporter qHTS assay (AID 1671198); note: nearly all actives have a fitted effect of over 50% in size
# Outline: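 Enzyme-substrate mix preincubated with compound 10 min at room temperature; reaction started with NADPH regeneration solution, 1 h 37C. Luminescent luciferin product read after 20 min detection reagent.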
# [5] = molecular target: Voltage-gated inwardly rectifying potassium channel KCNH2 (Homo sapiens) (UniProt Q12809); experiment: Human Ether-a-go-go-Related Gene (hERG) channel small molecule antagonists: fluorescence cell-based qHTS assay (AID 1671200); note: nearly all actives have a fitted effect of over 50% in size
# Outline: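 First, 1000 cells per well are seeded and cultured overnight at 37 C. Next, FluxOR II dye is loaded for 1 h at room temperature, protected from light. After 10 more minutes, stimulus is added and fluorescence is read.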
# [6] = molecular target: Cytochrome P450 2C19 (Homo sapiens) (UniProt P33261); experiment: Cytochrome P450 Family 2 Subfamily C Member 19 (CYP2C19) small molecule antagonists: luciferase reporter qHTS assay (AID 1671197); note: nearly all actives have a fitted effect of over 65% in size
# Outline: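 Enzyme-substrate mix with proluciferin substrate (P450-Glo CYP2C19 system) preincubated with compounds 10 min at room temperature; NADPH regeneration solution added, 37C for 1 h; detection reagent stops reaction, luminescence read after 20 min. Ketoconazole positive control.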
# [7] = molecular target: Nuclear receptor subfamily 1 group I member 2 (Homo sapiens) (UniProt O75469); experiment: Human pregnane X receptor (PXR) activation by small molecules, qHTS assay (AID 1346985); note: nearly all actives have a fitted effect of over 40% in size
# Outline: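 DPX-2 cells (HepG2 co-transfected with a PXR response element and a CYP3A4-promoter luciferase construct) were seeded at 2,000 per well, rested 5 hr at 37C, then exposed to DMSO-dissolved compounds for 24 hr. Activation was read as luciferase luminescence.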
# [8] = molecular target: Nuclear receptor subfamily 1 group I member 2 (Homo sapiens) (UniProt O75469); experiment: CYP3A4 induction through human pregnane X receptor (PXR) by small molecules, qHTS assay (AID 1346984); note: nearly all actives have a fitted effect of over 40% in size
# Outline: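 DPX-2 reporter cells; 24h cpd, 37C; Luciferin-IPA 3uM final x3h; One-Glo 30 min RT; lumi read.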
# [9] = molecular target: Cytochrome P450 3A4 (Homo sapiens) (UniProt P08684); experiment: Cytochrome P450 Family 3 Subfamily A Member 4 (CYP3A4) small molecule antagonists: luciferase reporter qHTS assay (AID 1671201); note: nearly all actives have a fitted effect of over 50% in size
# Outline: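 Enzyme and proluciferin substrate are mixed with test chemicals for 10 min, then NADPH regeneration system drives turnover for 1 h at room temperature. A detection reagent halts the reaction; luminescence after 20 min gives relative activity.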
# Potency is the fitted concentration of half-maximal effect.
smiles,measurement,setting,value
CCCCCCN,Potency,[1],"inconclusive: 35.6 µM [inhibitor, partial curve]"
O=C(O)C(c1ccc(Cl)cc1)c1ccc(Cl)cc1,Potency,[1],inactive
C=CC(=O)OCC(CO)(COC(=O)C=C)COC(=O)C=C,Potency,[2],"inconclusive: 15.4 µM [activator, single point]"
same,Potency,[3],"inconclusive: 63.5 µM [inhibitor, partial curve] and inconclusive: 63.3 µM [inhibitor, partial curve]"
Cc1c(Cn2ccnc2)c2ccccc2n1CCC(=O)O,Potency,[1],"inconclusive: 0.692 µM [inhibitor, full curve, poor fit]"
CCCCCC1=CCCC1=O,Potency,[2],active: 62.4 µM and inactive
same,Potency,[4],"inconclusive: 40.8 µM [inhibitor, partial curve] and inconclusive: 56.4 µM [inhibitor, partial curve]"
same,Potency,[3],"inconclusive: 35.6 µM [inhibitor, partial curve]"
same,Potency,[5],inactive
ClC1=C(Cl)C1(Cl)Cl,Potency,[1],inactive
COC(=O)CCCCC(CCSS/C(CCO)=C(\C)N(C=O)Cc1cnc(C)nc1N)SC(C)=O (stereo not drawn),Potency,[1],inactive
same,Potency,[6],"inconclusive: 38.9 µM [inhibitor, single point]"
CC(C)CCCCCCc1ccc(OCCOCCO)cc1,Potency,[2],active: 97.2 µM
same,Potency,[4],"inconclusive: 80 µM [inhibitor, partial curve, poor fit]"
same,Potency,[3],"inconclusive: 63.5 µM [inhibitor, partial curve]"
CCC(C)NC(N)=O (stereo not drawn),Potency,[1],"inconclusive: 35.6 µM [inhibitor, partial curve]"
C/C(CC(C)C)=N\O,Potency,[1],inactive
Cc1ccc2c(n1)Oc1ccc(C(C)C(=O)OCC(=O)N(C)C)cc1C2 (stereo not drawn),Potency,[1],"inconclusive: 30.9 µM [inhibitor, partial curve]"
same,Potency,[6],"inconclusive: 38.9 µM [inhibitor, single point]"
same,Potency,[4],"inconclusive: 15.5 µM [inhibitor, partial curve]"
CC(C)=CCC[C@@](C)(O)[C@H]1CC=C(C)CC1,Potency,[1],inactive
O=C(CCCN1CCC(O)(c2cccc(C(F)(F)F)c2)CC1)c1ccc(F)cc1,Potency,[7],active: 12.6 µM
C=CC(C)(CCC=C(C)C)OC(=O)c1ccccc1 (stereo not drawn),Potency,[2],"inconclusive: 61.1 µM [activator, single point]"
same,Potency,[5],"inconclusive: 12.3 µM [inhibitor, full curve]"
Cn1c(=O)c2[nH]c(Br)nc2n(C)c1=O,Potency,[7],inactive
CC(=O)OCC=C(C)C,Potency,[2],inactive
same,Potency,[3],inactive
O=S(c1cc(Cl)cc(Cl)c1O)c1cc(Cl)cc(Cl)c1O,Potency,[7],"inconclusive: 22.4 µM [activator, partial curve]"
same,Potency,[6],"inconclusive: 38.9 µM [inhibitor, single point]"
same,Potency,[4],active: 17.4 µM
same,Potency,[3],"inconclusive: 34.7 µM [inhibitor, partial curve]"
ClC(Cl)(Cl)c1ccc(C(Cl)(Cl)Cl)cc1,Potency,[1],"inconclusive: 70.3 µM [inhibitor, partial curve]"
same,Potency,[6],"inconclusive: 78.9 µM [inhibitor, single point]"
CC(C)CCOC(=O)/C=C/c1ccccc1,Potency,[2],inactive
same,Potency,[5],"inconclusive: 19.6 µM [inhibitor, single point]"
COC1CCC=CO1 (stereo not drawn),Potency,[2],inactive
same,Potency,[3],inactive
O=C(O)CC(=O)O,Potency,[1],active: 71.2 µM
CCCCCCCC/C=C\CCCCCCCC(=O)NCc1ccc(O)c(OC)c1,Potency,[1],"inconclusive: 11 µM [inhibitor, partial curve]"
CC(C)NCCCC1(C(N)=O)c2ccccc2-c2ccccc21,Potency,[2],active: 23.7 µM
same,Potency,[4],"inconclusive: 24.5 µM [inhibitor, partial curve]"
same,Potency,[3],inactive
CC(C)(C)N(CCO)CCO,Potency,[2],active: 63.1 µM
same,Potency,[3],"inconclusive: 65.3 µM [inhibitor, partial curve, poor fit]"
N=c1ccn2c(n1)O[C@H]1[C@H](O)[C@@H](CO)O[C@H]12,Potency,[8],"inconclusive: 0.199 µM [activator, full curve, poor fit]"
same,Potency,[3],inactive
O=C1c2ccccc2-c2ccccc21,Potency,[2],inactive
same,Potency,[4],active: 65 µM
same,Potency,[3],active: 0.58 µM
C#CC(O)C(CC)CCCC (stereo not drawn),Potency,[2],inconclusive: 68.6 µM [activator]
same,Potency,[4],"inconclusive: 39.9 µM [inhibitor, partial curve]"
same,Potency,[3],inactive
same,Potency,[9],"inconclusive: 56.4 µM [inhibitor, partial curve]"

# Reference: PubChem BioAssay (Tox21)
